Measurements from paper PMC5477518.
No constants are given. Whether binding was seen depends on the method and setting. In cells and extracts the contact can be indirect. Some entries that bind do so weakly or less than the wild type. Where a sequence is shown, tags or fusion partners need not be part of it.

Sequences of proteins named here, by UniProt entry; tags and fusion partners are left off. Residues count along the entry.
UniProt P28799, residues 18-593: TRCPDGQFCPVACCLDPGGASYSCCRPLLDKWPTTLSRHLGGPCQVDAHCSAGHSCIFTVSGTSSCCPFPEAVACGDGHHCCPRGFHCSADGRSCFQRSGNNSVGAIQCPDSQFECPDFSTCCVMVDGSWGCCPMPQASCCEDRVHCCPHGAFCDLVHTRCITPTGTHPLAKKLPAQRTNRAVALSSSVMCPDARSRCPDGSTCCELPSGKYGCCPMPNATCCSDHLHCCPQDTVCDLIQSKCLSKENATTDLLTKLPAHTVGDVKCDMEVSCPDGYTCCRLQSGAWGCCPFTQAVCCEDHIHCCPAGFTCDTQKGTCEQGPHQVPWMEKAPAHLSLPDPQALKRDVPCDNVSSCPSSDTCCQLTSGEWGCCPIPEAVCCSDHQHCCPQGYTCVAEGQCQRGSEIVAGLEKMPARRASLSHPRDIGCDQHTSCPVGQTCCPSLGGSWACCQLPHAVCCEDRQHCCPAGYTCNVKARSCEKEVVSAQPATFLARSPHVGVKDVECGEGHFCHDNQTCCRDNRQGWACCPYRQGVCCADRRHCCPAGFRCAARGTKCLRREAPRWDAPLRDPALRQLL

Target: T1, Mouse PSAP-myc-his (mouse) (UniProt Q61207)
T1 sequence: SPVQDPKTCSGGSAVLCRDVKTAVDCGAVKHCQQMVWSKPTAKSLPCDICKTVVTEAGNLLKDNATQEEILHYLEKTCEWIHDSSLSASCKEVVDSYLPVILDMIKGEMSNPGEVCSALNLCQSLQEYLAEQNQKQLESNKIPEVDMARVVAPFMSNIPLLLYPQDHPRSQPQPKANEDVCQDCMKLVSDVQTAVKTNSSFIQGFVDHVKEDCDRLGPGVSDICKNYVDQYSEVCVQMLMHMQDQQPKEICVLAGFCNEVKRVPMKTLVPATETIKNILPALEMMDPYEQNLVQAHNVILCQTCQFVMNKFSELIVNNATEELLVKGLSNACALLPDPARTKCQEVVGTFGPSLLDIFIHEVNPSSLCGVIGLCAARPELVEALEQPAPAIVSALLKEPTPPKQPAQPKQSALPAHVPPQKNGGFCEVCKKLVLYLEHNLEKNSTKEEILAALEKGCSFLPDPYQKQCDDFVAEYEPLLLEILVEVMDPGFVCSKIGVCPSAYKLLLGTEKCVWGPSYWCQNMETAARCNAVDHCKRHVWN
Assay: co-IP; HEK293T cells transfected with PSAP, sortilin and PGRN constructs together; lysates subject to anti-myc immunoprecipitation and blotted

Substance: Human PGRN (pCMV-Sport6 construct) (from UniProt P28799 18-593)
- binding: binds
